Laboratory results as given in article doi:10.1101/2020.03.12.989277.

The chains behind the UniProt entries cited, without tags or fusion partners.
UniProt Q02248: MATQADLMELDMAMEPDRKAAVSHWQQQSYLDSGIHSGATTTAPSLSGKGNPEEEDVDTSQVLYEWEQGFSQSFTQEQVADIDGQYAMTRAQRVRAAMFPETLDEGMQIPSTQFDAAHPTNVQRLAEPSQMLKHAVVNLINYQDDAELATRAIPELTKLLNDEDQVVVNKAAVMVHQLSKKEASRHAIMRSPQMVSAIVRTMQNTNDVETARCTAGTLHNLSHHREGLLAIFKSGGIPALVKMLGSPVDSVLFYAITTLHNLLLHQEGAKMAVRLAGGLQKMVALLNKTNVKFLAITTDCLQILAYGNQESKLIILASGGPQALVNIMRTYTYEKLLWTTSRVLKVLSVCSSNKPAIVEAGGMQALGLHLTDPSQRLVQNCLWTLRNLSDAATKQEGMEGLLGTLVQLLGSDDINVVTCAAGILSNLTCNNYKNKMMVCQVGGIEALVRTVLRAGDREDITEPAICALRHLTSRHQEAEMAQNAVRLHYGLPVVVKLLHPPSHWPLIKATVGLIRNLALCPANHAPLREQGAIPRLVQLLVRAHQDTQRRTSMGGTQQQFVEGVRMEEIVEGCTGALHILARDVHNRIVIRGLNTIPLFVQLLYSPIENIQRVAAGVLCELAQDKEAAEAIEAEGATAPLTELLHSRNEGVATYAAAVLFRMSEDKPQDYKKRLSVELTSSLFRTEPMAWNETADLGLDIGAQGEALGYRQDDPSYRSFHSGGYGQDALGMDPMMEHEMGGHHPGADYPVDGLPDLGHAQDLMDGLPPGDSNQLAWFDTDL
UniProt O08900: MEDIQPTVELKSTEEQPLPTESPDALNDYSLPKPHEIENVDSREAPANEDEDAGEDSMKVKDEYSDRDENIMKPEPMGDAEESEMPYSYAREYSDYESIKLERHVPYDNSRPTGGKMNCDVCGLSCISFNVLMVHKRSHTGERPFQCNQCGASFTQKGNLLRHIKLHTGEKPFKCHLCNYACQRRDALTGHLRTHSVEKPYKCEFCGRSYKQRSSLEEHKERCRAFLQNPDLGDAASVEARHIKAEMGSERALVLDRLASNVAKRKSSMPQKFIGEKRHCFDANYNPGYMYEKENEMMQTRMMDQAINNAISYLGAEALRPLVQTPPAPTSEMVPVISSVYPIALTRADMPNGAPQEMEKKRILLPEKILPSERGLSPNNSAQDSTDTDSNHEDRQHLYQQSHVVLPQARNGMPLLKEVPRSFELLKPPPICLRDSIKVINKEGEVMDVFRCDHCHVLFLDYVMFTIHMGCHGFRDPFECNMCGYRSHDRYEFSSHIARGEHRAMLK
UniProt Q03267: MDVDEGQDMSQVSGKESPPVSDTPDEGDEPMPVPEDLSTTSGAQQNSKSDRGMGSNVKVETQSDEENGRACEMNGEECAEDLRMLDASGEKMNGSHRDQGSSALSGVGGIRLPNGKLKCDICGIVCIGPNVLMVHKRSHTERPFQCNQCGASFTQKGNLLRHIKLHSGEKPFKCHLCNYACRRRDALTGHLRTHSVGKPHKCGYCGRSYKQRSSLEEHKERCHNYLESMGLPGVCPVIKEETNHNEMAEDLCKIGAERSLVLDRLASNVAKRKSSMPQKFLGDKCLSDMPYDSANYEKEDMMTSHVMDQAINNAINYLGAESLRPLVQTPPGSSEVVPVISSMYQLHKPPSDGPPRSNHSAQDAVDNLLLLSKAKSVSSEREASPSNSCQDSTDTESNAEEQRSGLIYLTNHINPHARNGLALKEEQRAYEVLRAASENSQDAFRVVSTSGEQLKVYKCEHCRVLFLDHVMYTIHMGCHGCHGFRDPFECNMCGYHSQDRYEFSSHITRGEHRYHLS

Molecular target: FLAG-tagged β-catenin (mouse) (UniProt Q02248)
Test: affinity purification with mass spectrometry

Substance | binding
Ikzf3 (Aiolos) (from UniProt O08900 1-507) | binds
Ikzf1 (Ikaros) (from UniProt Q03267 1-517) | binds

These are yes or no findings as the source states them, for the method shown. In cells and extracts the contact can be indirect. A yes stands for co-enrichment or nearness to the bait. Other partners may have been found.
